Test results from the supplement of paper PMC12823440, “Inhibitors supercharge kinase turnover through native proteolytic circuits” (Nature, 2025).
Counter-ions that a name gives are not always drawn. The list shows a part of the results. The calls rarely recur for the same compound in another form.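 Kinases were expressed as nanoluciferase fusions in K562 cells and luminescence was read every 4 h between 2 and 18 h as percent of control, DMSO set to 100% and a positive control to 0%. A time point counts as decreased when the signal drops significantly (2 sigma). The hit call is the authors' own, does not follow from the count of time points alone, and its rule is not shown.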

The chains behind the UniProt entries cited, without tags or fusion partners. Where a name states a change or a piece, a line headed by the entry shows the natural chain unless it says otherwise.
UniProt Q06187: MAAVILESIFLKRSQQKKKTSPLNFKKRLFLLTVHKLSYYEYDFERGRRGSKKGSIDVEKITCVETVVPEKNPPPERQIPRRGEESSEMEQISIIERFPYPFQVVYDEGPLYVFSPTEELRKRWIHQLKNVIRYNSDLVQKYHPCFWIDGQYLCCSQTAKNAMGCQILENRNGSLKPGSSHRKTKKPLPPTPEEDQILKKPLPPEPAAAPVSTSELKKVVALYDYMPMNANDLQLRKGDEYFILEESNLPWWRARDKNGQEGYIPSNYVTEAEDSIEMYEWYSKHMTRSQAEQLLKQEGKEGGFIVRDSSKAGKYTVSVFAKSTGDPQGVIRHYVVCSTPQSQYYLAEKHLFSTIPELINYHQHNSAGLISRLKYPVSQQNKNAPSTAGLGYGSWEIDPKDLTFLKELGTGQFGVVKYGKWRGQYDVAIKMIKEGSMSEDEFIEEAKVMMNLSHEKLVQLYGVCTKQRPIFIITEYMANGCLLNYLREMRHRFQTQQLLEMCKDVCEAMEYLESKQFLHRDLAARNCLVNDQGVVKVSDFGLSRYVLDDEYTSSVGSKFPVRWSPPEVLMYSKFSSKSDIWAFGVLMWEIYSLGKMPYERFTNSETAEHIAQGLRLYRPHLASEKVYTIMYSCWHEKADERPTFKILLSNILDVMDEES
UniProt Q9UQM7, whole entry: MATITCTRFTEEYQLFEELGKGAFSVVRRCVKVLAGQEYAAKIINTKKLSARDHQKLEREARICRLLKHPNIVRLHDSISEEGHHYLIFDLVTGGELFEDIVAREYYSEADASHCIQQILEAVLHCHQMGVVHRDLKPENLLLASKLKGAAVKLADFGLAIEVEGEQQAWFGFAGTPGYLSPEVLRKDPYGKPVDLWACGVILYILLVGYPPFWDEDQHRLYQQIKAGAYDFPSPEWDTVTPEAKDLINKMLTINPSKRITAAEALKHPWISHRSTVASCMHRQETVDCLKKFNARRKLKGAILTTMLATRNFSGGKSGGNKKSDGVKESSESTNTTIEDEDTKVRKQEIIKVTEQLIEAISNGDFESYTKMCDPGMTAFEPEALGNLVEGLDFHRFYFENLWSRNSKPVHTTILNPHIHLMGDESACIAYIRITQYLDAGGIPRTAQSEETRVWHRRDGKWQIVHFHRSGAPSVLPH
UniProt Q13555: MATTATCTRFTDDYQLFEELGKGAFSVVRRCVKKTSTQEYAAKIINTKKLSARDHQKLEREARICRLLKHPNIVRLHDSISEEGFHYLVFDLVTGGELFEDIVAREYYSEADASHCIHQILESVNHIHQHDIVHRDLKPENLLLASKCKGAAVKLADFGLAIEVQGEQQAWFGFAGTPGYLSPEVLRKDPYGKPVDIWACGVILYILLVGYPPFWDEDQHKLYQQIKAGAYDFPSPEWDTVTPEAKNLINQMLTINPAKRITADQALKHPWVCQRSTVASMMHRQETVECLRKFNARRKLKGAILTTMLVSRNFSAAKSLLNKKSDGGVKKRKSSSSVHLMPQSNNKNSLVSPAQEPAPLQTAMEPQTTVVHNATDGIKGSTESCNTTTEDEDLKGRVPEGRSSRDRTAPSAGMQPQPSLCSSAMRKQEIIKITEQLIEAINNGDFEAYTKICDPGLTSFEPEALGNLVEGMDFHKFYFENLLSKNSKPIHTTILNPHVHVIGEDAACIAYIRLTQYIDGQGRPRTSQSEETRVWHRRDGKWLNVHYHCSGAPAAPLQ
UniProt Q15131: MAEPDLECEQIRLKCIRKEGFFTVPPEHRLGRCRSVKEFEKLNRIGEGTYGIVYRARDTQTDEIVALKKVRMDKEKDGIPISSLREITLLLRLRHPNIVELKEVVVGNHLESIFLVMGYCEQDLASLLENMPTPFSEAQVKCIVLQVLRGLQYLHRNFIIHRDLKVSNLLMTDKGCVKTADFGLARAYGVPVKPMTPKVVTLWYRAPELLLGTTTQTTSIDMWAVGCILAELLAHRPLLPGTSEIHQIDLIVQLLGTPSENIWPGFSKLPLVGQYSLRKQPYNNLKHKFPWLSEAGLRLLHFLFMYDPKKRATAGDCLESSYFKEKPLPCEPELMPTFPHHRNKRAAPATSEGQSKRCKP
UniProt Q00526: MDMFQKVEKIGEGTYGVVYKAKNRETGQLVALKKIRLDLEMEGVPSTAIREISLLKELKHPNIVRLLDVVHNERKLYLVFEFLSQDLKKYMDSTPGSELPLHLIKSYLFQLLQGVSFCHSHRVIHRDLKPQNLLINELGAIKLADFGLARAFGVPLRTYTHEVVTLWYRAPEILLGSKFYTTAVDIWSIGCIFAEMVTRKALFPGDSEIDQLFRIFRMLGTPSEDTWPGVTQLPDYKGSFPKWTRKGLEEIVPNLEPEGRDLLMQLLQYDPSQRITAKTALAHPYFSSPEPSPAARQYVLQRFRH
UniProt P11802: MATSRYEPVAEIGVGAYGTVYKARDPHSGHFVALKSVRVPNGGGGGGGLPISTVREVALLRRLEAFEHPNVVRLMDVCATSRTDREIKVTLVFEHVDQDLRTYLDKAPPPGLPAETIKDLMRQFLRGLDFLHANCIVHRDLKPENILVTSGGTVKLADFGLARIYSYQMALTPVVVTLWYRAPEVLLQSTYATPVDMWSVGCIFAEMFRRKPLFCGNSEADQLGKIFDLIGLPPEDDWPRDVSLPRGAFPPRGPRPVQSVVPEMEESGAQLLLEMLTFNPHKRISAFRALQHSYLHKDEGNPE
UniProt Q00535, whole entry, looked up: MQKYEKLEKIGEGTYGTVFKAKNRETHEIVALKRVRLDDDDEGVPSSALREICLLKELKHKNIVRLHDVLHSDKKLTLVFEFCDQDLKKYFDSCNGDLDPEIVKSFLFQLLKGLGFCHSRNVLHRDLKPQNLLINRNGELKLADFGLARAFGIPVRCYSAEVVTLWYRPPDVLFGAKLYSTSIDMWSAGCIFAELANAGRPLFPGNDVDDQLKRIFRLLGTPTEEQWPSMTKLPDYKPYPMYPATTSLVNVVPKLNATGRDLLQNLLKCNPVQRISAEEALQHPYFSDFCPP
UniProt Q00534, whole entry: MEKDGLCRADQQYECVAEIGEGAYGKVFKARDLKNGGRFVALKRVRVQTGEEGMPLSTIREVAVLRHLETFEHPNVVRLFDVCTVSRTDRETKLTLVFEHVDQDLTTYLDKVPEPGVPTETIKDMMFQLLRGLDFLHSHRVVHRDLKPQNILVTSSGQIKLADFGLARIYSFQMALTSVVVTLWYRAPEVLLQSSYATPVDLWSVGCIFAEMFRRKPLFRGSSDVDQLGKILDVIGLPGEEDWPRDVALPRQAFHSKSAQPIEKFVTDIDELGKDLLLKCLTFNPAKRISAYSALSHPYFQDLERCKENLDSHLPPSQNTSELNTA

Experiments:
Test in all cases: kinase-Nluc reporter destabilization hit call (1 = scored as downregulated) (binary); higher = compound decreases kinase abundance
Conditions in all cases: K562, 2-18 h
BRAF_V600E = tested on: BRAF_V600E
BTK = BTK (UniProt Q06187)
CAMK2A = CAMK2A (UniProt Q9UQM7)
CAMK2G = CAMK2G (UniProt Q13555)
CDK10 = CDK10 (UniProt Q15131)
CDK2 = CDK2 (UniProt P24941)
CDK3 = CDK3 (UniProt Q00526)
CDK4 = CDK4 (UniProt P11802)
CDK5 = CDK5 (UniProt Q00535)
CDK6 = CDK6 (UniProt Q00534)

Measured: kinase-Nluc reporter destabilization hit call

C=CC(=O)N1C[C@@H](Nc2ncnc3[nH]ccc23)CC[C@H]1C [(2R,5S)-Ritlecitinib]
inactive: BRAF_V600E; 10 µM 0 | BTK; 10 µM 0 | CAMK2A; 10 µM 0 | CAMK2G; 10 µM 0 | CDK10; 10 µM 0 | CDK2; 10 µM 0 | CDK3; 10 µM 0 | CDK4; 10 µM 0 | CDK5; 10 µM 0 | CDK6; 10 µM 0

Cn1cc(/C=C2\C(=O)Nc3cccnc32)c2ccccc21
inactive: BRAF_V600E; 10 µM 0 | BTK; 10 µM 0 | CAMK2A; 10 µM 0 | CAMK2G; 10 µM 0 | CDK10; 10 µM 0 | CDK2; 10 µM 0 | CDK3; 10 µM 0 | CDK4; 10 µM 0 | CDK5; 10 µM 0 | CDK6; 10 µM 0

Cc1ccc(Nc2nccc(N(C)c3ccc4c(C)n(C)nc4c3)n2)cc1S(N)(=O)=O [Pazopanib (Hydrochloride)]
inactive: BRAF_V600E; 10 µM 0 | BTK; 10 µM 0 | CAMK2A; 10 µM 0 | CAMK2G; 10 µM 0 | CDK10; 10 µM 0 | CDK2; 10 µM 0 | CDK3; 10 µM 0 | CDK4; 10 µM 0 | CDK5; 10 µM 0 | CDK6; 10 µM 0

Cc1cnc(Nc2ccc(OCCN3CCCC3)cc2)nc1Nc1cccc(S(=O)(=O)NC(C)(C)C)c1 [Fedratinib (hydrochloride hydrate)]
inactive: BRAF_V600E; 2.5 µM 0 | BTK; 2.5 µM 0 | CAMK2A; 2.5 µM 0 | CAMK2G; 2.5 µM 0 | CDK10; 2.5 µM 0 | CDK2; 2.5 µM 0 | CDK3; 2.5 µM 0 | CDK4; 2.5 µM 0 | CDK5; 2.5 µM 0 | CDK6; 2.5 µM 0

2 successive records already listed, quoted:
C=CC(=O)N1C[C@@H](Nc2ncnc3[nH]ccc23)CC[C@H]1C [(2R,5S)-Ritlecitinib]
inactive: BRAF_V600E; 10 µM 0 | BTK; 10 µM 0 | CAMK2A; 10 µM 0 | CAMK2G; 10 µM 0 | CDK10; 10 µM 0 | CDK2; 10 µM 0 | CDK3; 10 µM 0 | CDK4; 10 µM 0 | CDK5; 10 µM 0 | CDK6; 10 µM 0

Cn1cc(/C=C2\C(=O)Nc3cccnc32)c2ccccc21
inactive: BRAF_V600E; 10 µM 0 | BTK; 10 µM 0 | CAMK2A; 10 µM 0 | CAMK2G; 10 µM 0 | CDK10; 10 µM 0 | CDK2; 10 µM 0 | CDK3; 10 µM 0 | CDK4; 10 µM 0 | CDK5; 10 µM 0 | CDK6; 10 µM 0

Going on with the list.

CCOc1cc2ncc(C#N)c(Nc3ccc(F)c(Cl)c3)c2cc1NC(=O)/C=C/CN(C)C [Pelitinib]
inactive: BRAF_V600E; 2.5 µM 0 | BTK; 2.5 µM 0 | CAMK2A; 2.5 µM 0 | CAMK2G; 2.5 µM 0 | CDK10; 2.5 µM 0 | CDK2; 2.5 µM 0 | CDK3; 2.5 µM 0 | CDK4; 2.5 µM 0 | CDK5; 2.5 µM 0 | CDK6; 2.5 µM 0

CC(C)(C)n1nc(-c2ccc(Cl)cc2)c2c(N)ncnc21
inactive: BRAF_V600E; 10 µM 0 | BTK; 10 µM 0 | CAMK2A; 10 µM 0 | CAMK2G; 10 µM 0 | CDK10; 10 µM 0 | CDK2; 10 µM 0 | CDK3; 10 µM 0 | CDK4; 10 µM 0 | CDK5; 10 µM 0 | CDK6; 10 µM 0

COc1ccc(-c2cc(C(=O)NN=C(C)c3ccc(OC)c(OC)c3)[nH]n2)cc1
inactive: BRAF_V600E; 10 µM 0 | BTK; 10 µM 0 | CAMK2A; 10 µM 0 | CAMK2G; 10 µM 0 | CDK10; 10 µM 0 | CDK2; 10 µM 0 | CDK3; 10 µM 0 | CDK4; 10 µM 0 | CDK5; 10 µM 0 | CDK6; 10 µM 0

COc1ccc(CNC(=O)Nc2ncc([N+](=O)[O-])s2)cc1
inactive: BRAF_V600E; 2.5 µM 0 | BTK; 2.5 µM 0 | CAMK2A; 2.5 µM 0 | CAMK2G; 2.5 µM 0 | CDK10; 2.5 µM 0 | CDK2; 2.5 µM 0 | CDK3; 2.5 µM 0 | CDK4; 2.5 µM 0 | CDK5; 2.5 µM 0 | CDK6; 2.5 µM 0

C=CC(=O)N1CCC[C@@H](n2nc(-c3ccc(Oc4ccccc4)cc3)c3c(N)ncnc32)C1 [Ibrutinib]
inactive: BRAF_V600E; 2.5 µM 0 | CAMK2A; 2.5 µM 0 | CAMK2G; 2.5 µM 0 | CDK10; 2.5 µM 0 | CDK2; 2.5 µM 0 | CDK3; 2.5 µM 0 | CDK4; 2.5 µM 0 | CDK5; 2.5 µM 0 | CDK6; 2.5 µM 0

Cc1cnc(Nc2ccc(OCCN3CCCC3)cc2)nc1Nc1cccc(S(=O)(=O)NC(C)(C)C)c1 [Fedratinib]
inactive: BRAF_V600E; 2.5 µM 0 | BTK; 2.5 µM 0 | CAMK2A; 2.5 µM 0 | CAMK2G; 2.5 µM 0 | CDK10; 2.5 µM 0 | CDK2; 2.5 µM 0 | CDK3; 2.5 µM 0 | CDK4; 2.5 µM 0 | CDK5; 2.5 µM 0 | CDK6; 2.5 µM 0

O=C(Nc1cccc(Cl)c1)Nc1ncc(CCNc2ncnc3ccsc23)s1 [SNS-314 (mesylate)]
inactive: BRAF_V600E; 10 µM 0 | BTK; 10 µM 0 | CAMK2A; 10 µM 0 | CAMK2G; 10 µM 0 | CDK10; 10 µM 0 | CDK2; 10 µM 0 | CDK3; 10 µM 0 | CDK4; 10 µM 0 | CDK5; 10 µM 0 | CDK6; 10 µM 0

Cc1ccc2c(=O)c3cccc(CC(=O)O)c3oc2c1C [Vadimezan]
inactive: BRAF_V600E; 10 µM 0 | BTK; 10 µM 0 | CAMK2A; 10 µM 0 | CAMK2G; 10 µM 0 | CDK10; 10 µM 0 | CDK2; 10 µM 0 | CDK3; 10 µM 0 | CDK4; 10 µM 0 | CDK5; 10 µM 0 | CDK6; 10 µM 0

COc1ccc(-c2cc3nccn3c(Nc3ncccc3C(N)=O)n2)cc1OC [BAY 61-3606 (dihydrochloride)]
inactive: BRAF_V600E; 2.5 µM 0 | BTK; 2.5 µM 0 | CAMK2A; 2.5 µM 0 | CAMK2G; 2.5 µM 0 | CDK10; 2.5 µM 0 | CDK2; 2.5 µM 0 | CDK3; 2.5 µM 0 | CDK4; 2.5 µM 0 | CDK6; 2.5 µM 0

COc1nccc(-c2c(-c3ccc(F)cc3)ncn2C2CCNCC2)n1
inactive: BRAF_V600E; 10 µM 0 | BTK; 10 µM 0 | CAMK2A; 10 µM 0 | CAMK2G; 10 µM 0 | CDK10; 10 µM 0 | CDK2; 10 µM 0 | CDK3; 10 µM 0 | CDK4; 10 µM 0 | CDK6; 10 µM 0

Cc1nc(Nc2ncc(C(=O)Nc3c(C)cccc3Cl)s2)cc(N2CCN(CCO)CC2)n1 [Dasatinib]
inactive: BRAF_V600E; 2.5 µM 0 | CAMK2A; 2.5 µM 0 | CAMK2G; 2.5 µM 0 | CDK10; 2.5 µM 0 | CDK2; 2.5 µM 0 | CDK3; 2.5 µM 0 | CDK4; 2.5 µM 0 | CDK5; 2.5 µM 0 | CDK6; 2.5 µM 0
